± gives the uncertainty stated by the source. The uncertainty is large for many entries.
Assay: self-splicing fitness, log relative to wild type (ln ratio); higher = more splicing; Tetrahymena group I intron in knt gene, E. coli kanamycin selection, DiMSum; sequences stand for … in CUCUCU…GGAGGGAAAAGUUAUCAGGCAUGCACCUGGUAGCUAGUCUUUAAACCAAUAGAUUGCAUCGGUUUAAAAGGCAAGACCGUCAAAUUGCGGGAAAGGGGUCAACAGCCGUUCAGUACCAAGUCUCAGGGGAAACUUUGAGAUGGCCUUGCAAAGGGUAUGGUAAUAAGCUGACGGACAUGGUCCUAACCACGCAGCCAAGUCCUAAGUCAACAGAUCUUCUGUUGAUAUGGAUGCAGUUCACAGACUAAAUGUCGGUCGGGGAAGAUGUAUUCUUCUCAUAAGAUAUAGUCGGACCUCUCCUUAAUGGGAGCUAGCGGAUGAAGUGAUGCAACACUGGAGCCGCUGGGAACUAAUUUGUAUGCGAAAGUAUAUUGAUUAGUUUUGGAGUACUCGUGGUCG
In short: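 Pooled colonies went to amplicon sequencing on an Illumina HiSeq 2500 after six replicate transformations. The plates were LB agar with 100 μg/mL carbenicillin, 50 μM IPTG and 0.2% rhamnose, with or without 25 μg/mL kanamycin, incubated overnight at 37°C or 30°C. The E. coli BL21(DE3) library had all eight P1ex-region intron nucleotides randomised, the intron placed in the knt kanamycin-resistance gene on pET-22b(+). DiMSum fitness is the error-weighted combination of replicate fold changes, kanamycin against none, normalised to wild type.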

CUUAAGCAAUAUUACGGACA
self-splicing fitness (ln) (30 °C): -3.61 ± 0.52
self-splicing fitness (ln) (37 °C): -1.62 ± 0.7

CUGGAGCAAUAUUACGAACC
self-splicing fitness (ln) (30 °C): -3.63 ± 0.73

CACAAGCAAUAUUACGAAAC
self-splicing fitness (ln) (30 °C): -3.83 ± 0.51

CUUAAGCAAUAUUACGCUUC
self-splicing fitness (ln) (37 °C): -2.9 ± 1.1

UUGGAGCAAUAUUACGGGUG
self-splicing fitness (ln) (30 °C): -4.52 ± 0.59

GGUUAGCAAUAUUACGGCCU
self-splicing fitness (ln) (30 °C): -4.4 ± 1

CCCCAGCAAUAUUACGAAUU
self-splicing fitness (ln) (30 °C): -3.01 ± 0.23
self-splicing fitness (ln) (37 °C): -1.59 ± 0.36

CUGAAGCAAUAUUACGCUAA
self-splicing fitness (ln) (30 °C): -5.08 ± 1

GUGUAGCAAUAUUACGACAG
self-splicing fitness (ln) (37 °C): -2.91 ± 0.65

AGAGAGCAAUAUUACGUCAU
self-splicing fitness (ln) (30 °C): -4.81 ± 0.72

CGUGAGCAAUAUUACGCGUA
self-splicing fitness (ln) (30 °C): -1.81 ± 0.6

CGGCAGCAAUAUUACGGUCA
self-splicing fitness (ln) (30 °C): -0.0453 ± 0.068
self-splicing fitness (ln) (37 °C): -0.156 ± 0.083

CAAGAGCAAUAUUACGAACA
self-splicing fitness (ln) (30 °C): -4.3 ± 0.6

AUCUAGCAAUAUUACGUGAA
self-splicing fitness (ln) (30 °C): -2.52 ± 0.12
self-splicing fitness (ln) (37 °C): -0.861 ± 0.12

GGUGAGCAAUAUUACGGAAA
self-splicing fitness (ln) (37 °C): -1.71 ± 0.53

CCUCAGCAAUAUUACGCACC
self-splicing fitness (ln) (30 °C): -3.7 ± 0.52
self-splicing fitness (ln) (37 °C): -3.7 ± 0.73

UCUUAGCAAUAUUACGCUCC
self-splicing fitness (ln) (30 °C): -2.83 ± 0.62
self-splicing fitness (ln) (37 °C): -1.63 ± 0.68

UUCGAGCAAUAUUACGCAGA
self-splicing fitness (ln) (30 °C): -4.08 ± 1
self-splicing fitness (ln) (37 °C): -2.77 ± 0.54

GGGGAGCAAUAUUACGAGAA
self-splicing fitness (ln) (30 °C): -0.484 ± 1.1

UUCCAGCAAUAUUACGUGGC
self-splicing fitness (ln) (30 °C): -3.11 ± 0.15
self-splicing fitness (ln) (37 °C): -3.15 ± 0.24

GUUGAGCAAUAUUACGCGCU
self-splicing fitness (ln) (30 °C): -3.7 ± 0.78
self-splicing fitness (ln) (37 °C): 0.0117 ± 1.2

CAUUAGCAAUAUUACGCAGA
self-splicing fitness (ln) (30 °C): -1.32 ± 0.67

UUGCAGCAAUAUUACGGAGC
self-splicing fitness (ln) (37 °C): -5 ± 0.72

GAAGAGCAAUAUUACGACGU
self-splicing fitness (ln) (30 °C): -0.922 ± 0.16
self-splicing fitness (ln) (37 °C): -0.536 ± 0.18

CUCUAGCAAUAUUACGAACA
self-splicing fitness (ln) (30 °C): -4.69 ± 0.59

AGCCAGCAAUAUUACGGCAG
self-splicing fitness (ln) (30 °C): -1.01 ± 0.065
self-splicing fitness (ln) (37 °C): -1.18 ± 0.092

GUCUAGCAAUAUUACGCGAC
self-splicing fitness (ln) (37 °C): -1.35 ± 0.84

CAAGAGCAAUAUUACGAGGC
self-splicing fitness (ln) (37 °C): -2.08 ± 0.64

GCGAAGCAAUAUUACGCCCU
self-splicing fitness (ln) (30 °C): -3.14 ± 0.76

GUGGAGCAAUAUUACGGACU
self-splicing fitness (ln) (30 °C): -0.699 ± 0.9
self-splicing fitness (ln) (37 °C): -0.95 ± 0.77

UACGAGCAAUAUUACGGACU
self-splicing fitness (ln) (37 °C): -3.03 ± 0.6

UAUCAGCAAUAUUACGGUGG
self-splicing fitness (ln) (30 °C): -1.2 ± 0.077
self-splicing fitness (ln) (37 °C): -0.377 ± 0.088

GCGGAGCAAUAUUACGCUAC
self-splicing fitness (ln) (30 °C): -3.35 ± 1
self-splicing fitness (ln) (37 °C): -0.687 ± 0.65

CCUGAGCAAUAUUACGAAGU
self-splicing fitness (ln) (30 °C): -4.12 ± 0.75

AAUCAGCAAUAUUACGGUGA
self-splicing fitness (ln) (30 °C): -0.138 ± 0.076
self-splicing fitness (ln) (37 °C): 0.345 ± 0.087

AUAUAGCAAUAUUACGAAUC
self-splicing fitness (ln) (30 °C): -3.63 ± 0.55
self-splicing fitness (ln) (37 °C): -2.87 ± 0.53

GUCGAGCAAUAUUACGAUAG
self-splicing fitness (ln) (37 °C): -3.08 ± 0.61

UCCAAGCAAUAUUACGACUA
self-splicing fitness (ln) (30 °C): -1.2 ± 0.12
self-splicing fitness (ln) (37 °C): 0.12 ± 0.1

UGAGAGCAAUAUUACGUGAA
self-splicing fitness (ln) (30 °C): -4.19 ± 0.33
self-splicing fitness (ln) (37 °C): -2.35 ± 0.27

AACUAGCAAUAUUACGCUUU
self-splicing fitness (ln) (30 °C): -2.44 ± 0.097
self-splicing fitness (ln) (37 °C): -1.71 ± 0.12

AAAUAGCAAUAUUACGAGAC
self-splicing fitness (ln) (37 °C): -0.595 ± 1.4

AGUCAGCAAUAUUACGAAGA
self-splicing fitness (ln) (30 °C): -1.49 ± 0.67
self-splicing fitness (ln) (37 °C): 0.399 ± 0.52

AACUAGCAAUAUUACGGUAU
self-splicing fitness (ln) (30 °C): -1.31 ± 0.072
self-splicing fitness (ln) (37 °C): -0.479 ± 0.092

UUUUAGCAAUAUUACGAGAC
self-splicing fitness (ln) (30 °C): -3.86 ± 0.61
self-splicing fitness (ln) (37 °C): -0.692 ± 0.55

CCCCAGCAAUAUUACGCUAA
self-splicing fitness (ln) (30 °C): -3.55 ± 0.18
self-splicing fitness (ln) (37 °C): -3.2 ± 0.21

CGUGAGCAAUAUUACGCUCA
self-splicing fitness (ln) (37 °C): -2.37 ± 0.55

GCGGAGCAAUAUUACGUCUC
self-splicing fitness (ln) (30 °C): -4.74 ± 0.73

CAUGAGCAAUAUUACGGUCC
self-splicing fitness (ln) (37 °C): -2.94 ± 0.53

CGUGAGCAAUAUUACGGAUA
self-splicing fitness (ln) (30 °C): -3.1 ± 0.3
self-splicing fitness (ln) (37 °C): -2.71 ± 0.34

GAAUAGCAAUAUUACGUACU
self-splicing fitness (ln) (30 °C): -0.732 ± 0.11
self-splicing fitness (ln) (37 °C): -0.151 ± 0.12

AGCGAGCAAUAUUACGAAUC
self-splicing fitness (ln) (30 °C): -4.93 ± 1
self-splicing fitness (ln) (37 °C): -2.34 ± 0.54

GAAUAGCAAUAUUACGGGAG
self-splicing fitness (ln) (30 °C): -3.25 ± 0.52

GCGAAGCAAUAUUACGCGUC
self-splicing fitness (ln) (30 °C): -5.74 ± 0.71

GUUGAGCAAUAUUACGAGUU
self-splicing fitness (ln) (30 °C): -4.07 ± 0.6

UCUAAGCAAUAUUACGGCAA
self-splicing fitness (ln) (30 °C): -1.94 ± 0.34
self-splicing fitness (ln) (37 °C): -1.22 ± 0.21

AUCUAGCAAUAUUACGCCGC
self-splicing fitness (ln) (30 °C): -3.12 ± 0.62
self-splicing fitness (ln) (37 °C): -1.77 ± 0.83

UGCGAGCAAUAUUACGGAUU
self-splicing fitness (ln) (30 °C): -4.27 ± 0.51

CCCCAGCAAUAUUACGAUUU
self-splicing fitness (ln) (30 °C): -3.43 ± 0.14
self-splicing fitness (ln) (37 °C): -3.51 ± 0.25

AUCUAGCAAUAUUACGGAAA
self-splicing fitness (ln) (30 °C): -2.23 ± 0.2
self-splicing fitness (ln) (37 °C): -1.66 ± 0.18

GAAUAGCAAUAUUACGCAUC
self-splicing fitness (ln) (37 °C): -1.85 ± 0.81

CGCCAGCAAUAUUACGAUCC
self-splicing fitness (ln) (37 °C): -2.89 ± 1.1

UUGAAGCAAUAUUACGCUAC
self-splicing fitness (ln) (30 °C): -4.92 ± 1

CUUGAGCAAUAUUACGCAAA
self-splicing fitness (ln) (37 °C): -1.78 ± 0.53

CCGGAGCAAUAUUACGUUGA
self-splicing fitness (ln) (30 °C): -4.63 ± 0.71

GGGUAGCAAUAUUACGGGUU
self-splicing fitness (ln) (30 °C): -2.7 ± 0.15
self-splicing fitness (ln) (37 °C): -1.27 ± 0.14

UAGUAGCAAUAUUACGAUUC
self-splicing fitness (ln) (30 °C): -2.48 ± 0.78
self-splicing fitness (ln) (37 °C): -1.91 ± 0.52

CGUGAGCAAUAUUACGUGAC
self-splicing fitness (ln) (37 °C): -3.72 ± 0.52

CACGAGCAAUAUUACGCCAA
self-splicing fitness (ln) (30 °C): -4.14 ± 0.73
self-splicing fitness (ln) (37 °C): -3.87 ± 1

UGAAAGCAAUAUUACGAGAC
self-splicing fitness (ln) (30 °C): -0.86 ± 0.82

AGUGAGCAAUAUUACGCUUG
self-splicing fitness (ln) (30 °C): -2.09 ± 1.4
self-splicing fitness (ln) (37 °C): -0.778 ± 0.82

GGCCAGCAAUAUUACGCGAG
self-splicing fitness (ln) (30 °C): -4.66 ± 0.51

UUGUAGCAAUAUUACGCAAC
self-splicing fitness (ln) (37 °C): -1.53 ± 0.61

CUUAAGCAAUAUUACGUUCC
self-splicing fitness (ln) (30 °C): -5.18 ± 1
self-splicing fitness (ln) (37 °C): -1.82 ± 0.67

CCUUAGCAAUAUUACGAAGG
self-splicing fitness (ln) (37 °C): -3.69 ± 0.73

CAUUAGCAAUAUUACGUUAU
self-splicing fitness (ln) (30 °C): -4.44 ± 0.74

UGCAAGCAAUAUUACGAAAC
self-splicing fitness (ln) (30 °C): -4.13 ± 0.51

GUACAGCAAUAUUACGAAGG
self-splicing fitness (ln) (30 °C): -3.72 ± 0.74

GUGGAGCAAUAUUACGCAUC
self-splicing fitness (ln) (30 °C): -3.82 ± 1

UCUCAGCAAUAUUACGCGCA
self-splicing fitness (ln) (30 °C): -0.638 ± 0.16
self-splicing fitness (ln) (37 °C): -0.617 ± 0.18

AACGAGCAAUAUUACGUCCC
self-splicing fitness (ln) (30 °C): -4.35 ± 1
self-splicing fitness (ln) (37 °C): -0.853 ± 0.67

AAUAAGCAAUAUUACGCGGU
self-splicing fitness (ln) (30 °C): -3.83 ± 0.24
self-splicing fitness (ln) (37 °C): -2.36 ± 0.17

UUCGAGCAAUAUUACGCCCU
self-splicing fitness (ln) (30 °C): -3.68 ± 0.53
self-splicing fitness (ln) (37 °C): -0.927 ± 1.2

CCCCAGCAAUAUUACGACCG
self-splicing fitness (ln) (30 °C): -4.12 ± 0.26
self-splicing fitness (ln) (37 °C): -1.76 ± 0.34

CUUGAGCAAUAUUACGAGGA
self-splicing fitness (ln) (37 °C): -3.72 ± 0.59

AGUUAGCAAUAUUACGAGAA
self-splicing fitness (ln) (30 °C): -2.47 ± 1.1
self-splicing fitness (ln) (37 °C): -1.54 ± 0.82

UUGUAGCAAUAUUACGAAGC
self-splicing fitness (ln) (37 °C): -2.77 ± 1.1

UACCAGCAAUAUUACGGUGC
self-splicing fitness (ln) (30 °C): -3.21 ± 0.12
self-splicing fitness (ln) (37 °C): -2.64 ± 0.2

GCUCAGCAAUAUUACGCUGA
self-splicing fitness (ln) (37 °C): -2.5 ± 0.54

GGGUAGCAAUAUUACGAGUA
self-splicing fitness (ln) (30 °C): -2.64 ± 0.54

CUGGAGCAAUAUUACGGGCA
self-splicing fitness (ln) (37 °C): -0.595 ± 0.71

GCCUAGCAAUAUUACGGCCA
self-splicing fitness (ln) (30 °C): -1.81 ± 0.33
self-splicing fitness (ln) (37 °C): -1.52 ± 0.35

AUAAAGCAAUAUUACGGCUG
self-splicing fitness (ln) (30 °C): 0.334 ± 0.069
self-splicing fitness (ln) (37 °C): 0.483 ± 0.1

From the supplement of paper PMC7877785
